Measurements published in the supplement of paper PMC6078165.

Tested on: MDAMB436
Assay: relative JC-1 red fluorescence (viability) vs pre-drug, coculture with fibroblast (fraction); higher = more viable cancer cells
Procedure: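 JC-1 labelled TNBC cells cocultured 1:1 (1,500 cells each) with CellTrace Violet stained primary or stromal fibroblasts in 384-well plates in FluoroBrite medium, treated with one of 42 anticancer drugs at 0.1, 1, 10 or 100 uM. JC-1 red fluorescence (mitochondrial integrity in cancer cells only) was read by plate reader every 8 h for 72 h. Values are normalised to each well's pre-drug value. The stock of one drug was tenfold lower, so its dose labels may be too high.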

O=c1[nH]cc(F)c(=O)[nH]1 [Fluorouracil]
relative JC-1 red fluorescence
Settings | 8 h | 16 h | 24 h | 32 h | 40 h | 48 h | 56 h | 64 h | 72 h
0.1 µM, coculture fibroblast: C12385 | 0.859 | 0.729 | 0.729 | 0.679 | 0.645 | 0.634 | 0.632 | 0.623 | 0.623
0.1 µM, coculture fibroblast: H6013 | 0.868 | 0.732 | 0.744 | 0.734 | 0.72 | 0.727 | 0.689 | 0.661 | 0.617
0.1 µM, coculture fibroblast: H6019 | 0.743 | 0.6187 | 0.598 | 0.516 | 0.473 | 0.45 | 0.422 | 0.394 | 0.372
0.1 µM, coculture fibroblast: H6076 | 0.752 | 0.643 | 0.63 | 0.595 | 0.583 | 0.562 | 0.577 | 0.57 | 0.558
0.1 µM, coculture fibroblast: H6231 | 0.772 | 0.7 | 0.666 | 0.602 | 0.58105 | 0.54 | 0.527 | 0.504 | 0.473
0.1 µM, coculture fibroblast: HADF | 0.827 | 0.744 | 0.734 | 0.719 | 0.716 | 0.735 | 0.674 | 0.664 | 0.625
0.1 µM, coculture fibroblast: HCFa | 0.7762 | 0.656 | 0.618 | 0.583 | 0.545 | 0.556 | 0.486 | 0.475 | 0.419
0.1 µM, coculture fibroblast: HCPF | 0.794 | 0.703 | 0.668 | 0.61 | 0.587 | 0.551 | 0.526 | 0.501 | 0.4795
0.1 µM, coculture fibroblast: HHSteC | 0.823 | 0.744 | 0.723 | 0.691 | 0.667 | 0.674 | 0.619 | 0.597 | 0.5419
0.1 µM, coculture fibroblast: HMF | 0.785 | 0.673 | 0.647 | 0.612 | 0.602 | 0.577 | 0.574 | 0.549 | 0.539
0.1 µM, coculture fibroblast: HPFa | 0.881 | 0.7959 | 0.754 | 0.7 | 0.664 | 0.666 | 0.587 | 0.555 | 0.481
0.1 µM, coculture fibroblast: HUF | 0.842 | 0.7191 | 0.682 | 0.606 | 0.55 | 0.522 | 0.5 | 0.4836 | 0.4739
0.1 µM, coculture fibroblast: Hs5 | 0.80157 | 0.702 | 0.691 | 0.641 | 0.632 | 0.591 | 0.607 | 0.571 | 0.563
0.1 µM, coculture fibroblast: Hs27A | 0.794 | 0.721 | 0.692 | 0.669 | 0.639 | 0.693 | 0.597 | 0.573 | 0.497
0.1 µM, coculture fibroblast: Hs343T | 0.76 | 0.644 | 0.589 | 0.545 | 0.51 | 0.483 | 0.461 | 0.43642 | 0.4312
0.1 µM, coculture fibroblast: WS1 | 0.775 | 0.633 | 0.61 | 0.531 | 0.489 | 0.463 | 0.439 | 0.41 | 0.404
1 µM, coculture fibroblast: C12385 | 0.796 | 0.654 | 0.652 | 0.578 | 0.529 | 0.504 | 0.493 | 0.479 | 0.478
1 µM, coculture fibroblast: H6013 | 0.822 | 0.7127 | 0.6917 | 0.6687 | 0.647 | 0.663 | 0.627 | 0.615 | 0.57
1 µM, coculture fibroblast: H6019 | 0.744 | 0.644 | 0.631 | 0.557 | 0.522 | 0.513 | 0.487 | 0.466 | 0.435
1 µM, coculture fibroblast: H6076 | 0.782 | 0.653 | 0.665 | 0.636 | 0.61 | 0.584 | 0.589 | 0.582 | 0.579
1 µM, coculture fibroblast: H6231 | 0.7398 | 0.639 | 0.6218 | 0.56 | 0.517 | 0.504 | 0.4851 | 0.464 | 0.441
1 µM, coculture fibroblast: HADF | 0.811 | 0.719 | 0.734 | 0.711 | 0.708 | 0.731 | 0.684 | 0.679 | 0.645
1 µM, coculture fibroblast: HCFa | 0.7604 | 0.6586 | 0.6336 | 0.599 | 0.567 | 0.59 | 0.519 | 0.51 | 0.461
1 µM, coculture fibroblast: HCPF | 0.775 | 0.665 | 0.652 | 0.594 | 0.556 | 0.527 | 0.5 | 0.49 | 0.465
1 µM, coculture fibroblast: HHSteC | 0.844 | 0.767 | 0.739 | 0.699 | 0.687 | 0.69 | 0.631 | 0.609 | 0.556
1 µM, coculture fibroblast: HMF | 0.789 | 0.662 | 0.64 | 0.599 | 0.562 | 0.526 | 0.52 | 0.502 | 0.494
1 µM, coculture fibroblast: HPFa | 0.922 | 0.833 | 0.74 | 0.791 | 0.7214 | 0.765 | 0.727 | 0.68 | 0.737
1 µM, coculture fibroblast: HUF | 0.857 | 0.731 | 0.701 | 0.629 | 0.568 | 0.541 | 0.52 | 0.501 | 0.492
1 µM, coculture fibroblast: Hs5 | 0.844 | 0.73 | 0.701 | 0.634 | 0.614 | 0.5674 | 0.568 | 0.545 | 0.536
1 µM, coculture fibroblast: Hs27A | 0.837 | 0.78 | 0.758 | 0.744 | 0.719 | 0.7758 | 0.687 | 0.675 | 0.606
1 µM, coculture fibroblast: Hs343T | 0.774 | 0.64 | 0.5965 | 0.5583 | 0.5236 | 0.4895 | 0.4713 | 0.46516 | 0.458
1 µM, coculture fibroblast: WS1 | 0.777 | 0.671 | 0.6681 | 0.5925 | 0.552 | 0.531 | 0.51 | 0.492 | 0.481

The reference is the same well before dosing, and untreated signal decays as well.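 Labels refer to human fibroblasts, largely primary: uterine (C12385, HUF), lung (H6013), bone (Hs27A), adrenal (HADF), skin (WS1), plus mammary HMF and breast cancer-associated Hs343T. Cancer lines are basal-like or mesenchymal-like triple-negative breast cancer. The paper counts as hits responses shifting over 3x the replicate standard deviation. The tissue of the other fibroblasts is not given here.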
